The source of these data is article doi:10.1101/2023.08.07.552250.

Results are given in words; binding and its absence hold for the method and conditions named. Binding can be weak; no strength is given.

What all share (experiment): two-hybrid
Experiment [1] deals with T1, serine/arginine-rich 45 (SR45), SR45.1 isoform (Arabidopsis thaliana) (UniProt Q9SEE9).
T1 sequence: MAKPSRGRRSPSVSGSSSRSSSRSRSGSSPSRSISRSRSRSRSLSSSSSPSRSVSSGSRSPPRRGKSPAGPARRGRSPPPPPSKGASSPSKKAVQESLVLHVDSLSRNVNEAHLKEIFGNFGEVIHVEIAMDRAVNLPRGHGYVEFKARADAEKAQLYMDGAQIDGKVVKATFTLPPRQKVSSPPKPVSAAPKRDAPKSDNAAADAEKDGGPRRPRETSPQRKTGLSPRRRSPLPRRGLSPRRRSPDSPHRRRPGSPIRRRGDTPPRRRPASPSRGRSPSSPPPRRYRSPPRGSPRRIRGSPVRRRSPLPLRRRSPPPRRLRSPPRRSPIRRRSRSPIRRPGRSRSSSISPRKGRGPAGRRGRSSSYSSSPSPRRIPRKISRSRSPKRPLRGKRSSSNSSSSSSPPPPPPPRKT

In experiment [2] the target is SR45mutRS1 (Arabidopsis thaliana) (UniProt Q9SEE9).
Experiment [3] deals with SR45mutRS1+RRM (Arabidopsis thaliana) (UniProt Q9SEE9).
The target in experiment [4] is SR45mutRS1+RS2 (Arabidopsis thaliana) (UniProt Q9SEE9).
Experiment [5] addresses SR45mutRS2 (Arabidopsis thaliana) (UniProt Q9SEE9).

Regarding SRPK3a (Arabidopsis thaliana) (enzyme), the binding entry in experiment [1] is listed as “binds”.

SRPK1 (Arabidopsis thaliana) (enzyme): in experiment [1], the binding entry was “no binding”.

For “SRPK3b/SRPK5 (Arabidopsis thaliana) (enzyme)”, the binding result in experiment [1] is listed as “binds”.

With SRPK2 (Arabidopsis thaliana) (enzyme), the binding entry in experiment [1] was “no binding”.

B1: ALY4 (protein, UniProt Q6NQ72 1-288)
chain: MSGALNMTLDEIVKRGKTARSGGRGISRGRGRGRGGGGRGAGPARRGPLAVNARPSSFTINKPVRRVRSLPWQSGLFEDGLRAAGASGVEVGTRLHVTNLDQGVTNEDIRELFSEIGEVERYAIHYDKNGRPSGTAEVVYPRRSDAFQALKKYNNVLLDGRPMRLEILGGNNSSEAPLSGRVNVNVTGLNGRLKRTVVIQQGGGGRGRVRGGRGGRGPAPTVSRRLPIHNQQGGGMRGGRGGFRARGRGNGGRGRGGGRGNGKKPVEKSAADLDKDLESYHADAMNTS
On to B1, for which the binding entry in experiment [2] and in experiment [3] was “binds weakly” each time.

B2: PRP38 (Pre-mRNA Processing factor 38) (protein, UniProt Q8LB54 1-355)
chain: MANRTDPLAKNIRGTNPQNLVEKIVRTKIYQHTFWKEQCFGLTAETLVDKAMELDHLGGTFGGSRKPTPFLCLILKMLQIQPEKEIVVEFIKNDDYKYVRILGAFYLRLTGTDVDVYRYLEPLYNDYRKVRQKLSDGKFSLTHVDEVIEELLTKDYSCDIAMPRLKKRWTLEQNGLLEPRKSVLEDDFEEEEEKEENEGIADGSEDEMDQRRKSPERERERDRDRRRDSHRHRDRDYDRDYDMDRDHDRDYERERGHGRDRDRERDRDHYRERDRDRERGRDRERDRRDRARRRSRSRSRDRKRHETDDVRDREEPKKKKEKKEKMKEDGTDHPNPEIAEMNRLRASLGMKPLRD
Regarding B2, the binding entry in experiment [2], in experiment [4] and in experiment [5] was “binds” throughout.

B3: SR34 (protein, UniProt O22315 1-303)
chain: MSSRSSRTVYVGNLPGDIREREVEDLFSKYGPVVQIDLKVPPRPPGYAFVEFDDARDAEDAIHGRDGYDFDGHRLRVELAHGGRRSSDDTRGSFNGGGRGGGRGRGDGGSRGPSRRSEFRVLVTGLPSSASWQDLKDHMRKGGDVCFSQVYRDARGTTGVVDYTCYEDMKYALKKLDDTEFRNAFSNGYVRVREYDSRKDSRSPSRGRSYSKSRSRSRGRSVSRSRSRSRSRSRSPKAKSSRRSPAKSTSRSPGPRSKSRSPSPRRSRSRSRSPLPSVQKEGSKSPSKPSPAKSPIHTRSPSR
As to B3, the binding result was “binds” in experiment [2], “no binding” in experiment [4] and “binds” in experiment [5].

B4: RSZ21 (protein, UniProt O81127 1-187)
chain: MTRVYVGNLDPRVTERELEDEFKAFGVLRNVWVARRPPGYAFLEFDDERDALDAISALDRKNGWRVELSHKDKGGRGGGGGRRGGIEDSKCYECGELGHFARECRRGRGSVRRRSPSPRRRRSPDYGYARRSISPRGRRSPPRRRSVTPPRRGRSYSRSPPYRGSRRDSPRRRDSPYGRRSPYANGV
Take B4: the binding result in experiment [2], in experiment [4] and in experiment [3] was “no binding” in each case.

B5: RS2Z32 (arginine/serine-rich zinc knuckle-containing protein 32) (protein, UniProt Q9FYB7 1-284)
chain: MPRYDDRYGNTRLYVGRLSSRTRTRDLERLFSRYGRVRDVDMKRDYAFVEFSDPRDADDARYYLDGRDFDGSRITVEASRGAPRGSRDNGSRGPPPGSGRCFNCGVDGHWARDCTAGDWKNKCYRCGERGHIERNCKNSPSPKKARQGGSYSRSPVKSRSPRRRRSPSRSRSYSRGRSYSRSRSPVRREKSVEDRSRSPKAMERSVSPKGRDQSLSPDRKVIDASPKRGSDYDGSPKENGNGRNSASPIVGGGESPVGLNGQDRSPIDDEAELSRPSPKGSESP
Turning to B5, the binding result in experiment [2], in experiment [4] and in experiment [3] was “no binding” each time.

B6: SCL30 (protein, UniProt Q8L3X8 1-262)
chain: MRRYSPPYYSPPRRGYGGRGRSPPPPPPRRGYGGGGGGGGRRGSSHGSLLVRNIPLDCRPEELREPFERFGPVRDVYIPRDYYSGQPRGFAFVEFVDAYDAGEAQRSMNRRSFAGREITVVVASESRKRPEEMRVKTRTRSREPSGSRDRSHGRSRSRSISRSRSPRRPSDSRSRYRSRSYSPAPRRRGGPPRGEEDENYSRRSYSPGYEGAAAAAPDRDRNGDNEIREKPGYEAEDRRRGGRAVSRSPSGSRSRSVEVSPR
B6: the binding result in experiment [2] was “binds”; in experiment [4], “no binding”; in experiment [5], “binds”.

B7: RZ-1B (protein, UniProt O22703 1-292)
chain: MKDRENDGNLESRIFVGGLSWDVTERQLESTFDRYGKITECQIMVGRDTGRPRGFGFITFTDRRGADDAIKHMHGRELGNKVISVNKAEPKVGGEDVDQLKKGGGYSSRGKGTEDECFKCRRPGHWARDCPSTGDDRERFRVPLAMRSRIGDIDGHRDRYGDRDLEREREREREFDRYMDGRRDRDGGRYSYRDRFDSGDKYEPRDHYPFERYAPPGDRFVSDRYGMPEHHLENEYRGRERSYDRDRYARDTSDRYGDMGPIRDEGRPYRSRPGPYDRPSRPGGRPSSYERW
Consider B7, for which the binding result in experiment [2], in experiment [4] and in experiment [3] was “no binding” throughout.

B8: MOS12 (MODIFIER OF SNC1-1, 12) (protein, UniProt Q8RWV3 1-416)
chain: MIYTAIDNFYLSDEQLKASPSRKDGIDETTEISLRIYGCDLIQEGGILLKLPQAVMATGQVLFQRFYCKKSLAKFDVKIVAASCVWLASKLEENPKKARQVIIVFHRMECRRENLPLEHLDMYAKKFSELKVELSRTERHILKEMGFVCHVEHPHKFISNYLATLETPPELRQEAWNLANDSLRTTLCVRFRSEVVACGVVYAAARRFQVPLPENPPWWKAFDADKSSIDEVCRVLAHLYSLPKAQYISVCKDGKPFTFSSRSGNSQGQSATKDLLPGAGEAVDTKCTAGSANNDLKDGMVTTPHEKATDSKKSGTESNSQPIVGDSSYERSKVGDRERESDREKERGRERDRGRSHRGRDSDRDSDRERDKLKDRSHHRSRDRLKDSGGHSDKSRHHSSRDRDYRDSSKDRRRHH
B8: the binding entry in experiment [2], in experiment [4] and in experiment [3] was “no binding” each time.

B9: RZ-1C (protein, UniProt Q8RWN5 1-310)
chain: MAAKEGSRIFVGGLSPEVTDRDLERAFSRFGDILDCQIMLERDTGRSRGFGFITFADRRAMDESIREMHGRDFGDRVISVNRAEPKLGRDDGESHGSRGGRDSGYSIAGKGSFGGGGGGGGRVGEDECFKCGRVGHWARDCPSAGGGRGGPVGGFSSRASAYGGSDGRVDRYADRDRYVDRERYIDDRYDGAARYGARDRFDSREAYIPRDRYASDRYAAPADRFAGGDRYSRGSDRYPPGSYDKARSFERDIAPSAGSDRYGGGRAGGPIRGGGEEGRGFRSRAGAPYERPSRSGGGGAYPSSSTFDRY
Consider B9, for which the binding result in experiment [2], in experiment [4] and in experiment [3] was “no binding” each time.

B10: MOS14 (MODIFIER OF SNC1-1, 14) (protein, UniProt Q8GUL2 1-958)
chain: MEHQNAVKEALNALYHHPDDTVRVHADRWLQNFQGTLDAWQVADNLLHDSSSNLETLIFCSQTLRSKVQRDFEELPPGAFQKLRQSLTTLLKKFHKGPPKVRTQISIAVAALAVHVPAADWGDGGIISWLRDEMHMHPEYVPGFLELLTVLPEETFNYKIAARPDRRRQFEKELTSQMEAALSILSACLKISELKEQVLEAFASWLRLRHGIPGTVLACHPLVHAALSSLNCDPLSEASVNVISELIHHTASPSSGGISAQTPLIQVIVPQILSLQAHLRDSSKDEEDVKAIGRLFADVGDSYVELIATGSDEPMVIVHALLEVTAHPEFDIASMTFNFWHSLQLMLTKRESYSSLGSEASIEVERNRRLHIFQPAYQSLVSLVGFRVQYPEDYQGLSYEDLKEFKQTRYAVADVLIDAALILGGDTTLKILYMKLLEANAQTGNNFQDWRPAEAILFCIWAISNYVSVVEAEVMPQVMALLQNLPQQAQLLQTACLLVGAYSKWLNAAPASVSILPSIIRILMSGMGTSEDCAAAAALAFRHTCDDCRKNLCGYFEDLFNIYCMAINGGGGYKVSAEDSLNLVEALGMVVTELPLDQAKGALEKLCFSAASPLEEAAKEDLEKKHARELTVHIDRFAFLFRYVNHPEAVAAEINKHWAIFRVIFDARPWDMRTMESLCRACKYAVRTSGRYIIDTIGEMLEKIQFHYQQHHQPCFLYLSSEVIKIFGSDPSCAVYLKNLIETLFAHTTCLMTSIKEVTARPDIADDCFLLASRCLRYCPHLFIPSPIFPALVNCAMIGITVQHREACHSILTFLTDIFDLEKSVNEEQFVRIRDNIIIPRGATITRILIASLAGALPSSRLDTVTYSLLALTRTYRLQAVSWAKESVSLIPRTALTETESTKFLQALSDIAYGADVNSLIGQVEELSDVCRRNRTVQELVQAALKPLELNLVTAPVS
On to B10, for which the binding result in experiment [5] was “no binding”.

B11: RS31a (protein, UniProt Q9ZPX8 1-250)
chain: MRHVYVGNFDYDTRHSDLERLFSKFGRVKRVDMKSGYAFVYFEDERDAEDAIRRTDNTTFGYGRRKLSVEWAKDFQGERGKPRDGKAVSNQRPTKTLFVINFDPIRTRERDMERHFEPYGKVLNVRMRRNFAFVQFATQEDATKALDSTHNSKLLDKVVSVEYALREAGEREDRYAGSRRRRSPSPVYRRRPSPDYTRRRSPEYDRYKGPAPYERRKSPDYGRRSSDYGRARARSPGYDRSRSPIQRARG
On to B11, for which the binding entry in experiment [2] is “binds”; in experiment [4], “no binding”; in experiment [5], “binds”.
